Experimental data: patent US10039741B2, “Use of delta tocopherol for the treatment of lysosomal storage disorders” (The United States of America, as represented by the …, priority 2010, dated 2018)
Some entries share one result that the patent states for a list of compounds. At least one compound was matched to its structure with a doubt left.

Tests used:
[1] = tested on: NPC patient-derived skin fibroblasts; test: Amplex red cholesterol assay (free cholesterol); format: cell-based, human; settings: NPCD fibroblasts; read-out: EC50, reduction of cholesterol accumulation
Excerpt: Free cholesterol accumulation in cells is a hallmark of NPC disease. The Amplex red cholesterol assay was used to screen an approved drug library in the NPC patient-derived skin fibroblasts that have free cholesterol accumulation in late endosome and lysosome. […] We then show δ-tocopherol in the filipin cholesterol staining assay, a method used clinically for NPCD diagnosis. […] Lysosome size is usually enlarged in the NPCD cells using a lysotracker staining assay.
The free cholesterol level in these cells was then measured by a cholesterol oxidase coupled HRP/amplex red detection method with a commercial available kit (Invitrogen). The cells were seeded to black, tissue culture-treated 1536-well plates (Greiner Bio-One, Monroe, N.C.) at 800 cells/well in 5 μl medium by a Multidrop Combi dispenser (Thermo Scientific, Waltham, Mass.) and cultured for 24 hours. […] With the addition of the detection mixture, the cells were lysed by the detergent containing buffer and free cholesterols in cell lysate were oxidized by cholesterol oxidase to produce H2O2 which reacting with amplex red dye in the presence of horseradish peroxidase to yield red fluorescence signal. A ViewLux plate reader (PerkinElmer, Boston, Mass.) was used to measure the fluorescent signal in assay plates with the excitation of 573 nm and emissions of 610 nm.

[2] = human plasma, physiological level; cited from earlier work

SMILES: Cc1c(C)c2c(c(C)c1O)CC[C@@](C)(CCC[C@H](C)CCC[C@H](C)CCCC(C)C)O2 [α-tocopherol, reference compound]
- EC50 [1]: 60 to 80 µM

SMILES: Cc1cc(O)c(C)c2c1O[C@](C)(CCC[C@H](C)CCC[C@H](C)CCCC(C)C)CC2 [β-tocopherol]
- plasma concentration [2]: 1000 to 3000 nM
- EC50 [1]: 60 to 80 µM

SMILES: Cc1c(O)cc2c(c1C)O[C@](C)(CCC[C@H](C)CCC[C@H](C)CCCC(C)C)CC2 [γ-tocopherol]
- plasma concentration [2]: 1000 to 3000 nM
